PubChem BioAssay AID1224830, NIAID | 2016
This is a random part of about 18,000 reagents. About 2,900 of all reagents (16%) were called active. 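Calls are made per well; low scores hint the gene aids the LPS response, high scores that it dampens it.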 Repeated entries: four replicate wells of each siRNA pool.

Screen: 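Genes whose knock-down alters the TNF-alpha reporter response to LPS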 (primary screen)
Cell system: human THP-1 monocytic leukaemia cells, TNF dual-luciferase reporter clone, PMA-differentiated to macrophage-like cells
Knock-down reagent: siRNA pool against human genes, 50 nM
Timing: LPS for 4 h, given about 3 days after siRNA transfection
Challenge: bacterial LPS (TLR4 ligand), 10 ng/ml
Measurement: 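Ratio of firefly to renilla light, scaled to the plate median and expressed as a robust z-score per replicate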
Scale: TNF reporter robust z-score: higher = stronger TNF reporter response to LPS
Call rule: 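a well is active when its z-score exceeds 2.8 or falls below -1.5; control wells carry no call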

| gene symbol | TNF reporter robust z-score | outcome |
| --- | --- | --- |
| DYRK4 (dual specificity tyrosine phosphorylation regulated kinase 4) | -1.76 | active |
| DYRK4 (dual specificity tyrosine phosphorylation regulated kinase 4) | -0.7 | inactive |
| DYRK4 (dual specificity tyrosine phosphorylation regulated kinase 4) | -0.68 | inactive |
| DYRK4 (dual specificity tyrosine phosphorylation regulated kinase 4) | -0.99 | inactive |
| AHSP (alpha hemoglobin stabilizing protein) | 0.05 | inactive |
| AHSP (alpha hemoglobin stabilizing protein) | 0.59 | inactive |
| AHSP (alpha hemoglobin stabilizing protein) | 0.92 | inactive |
| AHSP (alpha hemoglobin stabilizing protein) | 0.23 | inactive |
| TSLIG3A (tRNA splicing ligase complex subunit 3A) | -0.52 | inactive |
| TSLIG3A (tRNA splicing ligase complex subunit 3A) | 0.39 | inactive |
| TSLIG3A (tRNA splicing ligase complex subunit 3A) | 0.12 | inactive |
| TSLIG3A (tRNA splicing ligase complex subunit 3A) | 0.2 | inactive |
| GEMIN8 (gem nuclear organelle associated protein 8) | -0.09 | inactive |
| GEMIN8 (gem nuclear organelle associated protein 8) | 0 | inactive |
| GEMIN8 (gem nuclear organelle associated protein 8) | 0.06 | inactive |
| GEMIN8 (gem nuclear organelle associated protein 8) | 0.26 | inactive |
| C5 (complement C5) | -0.02 | inactive |
| C5 (complement C5) | -1.21 | inactive |
| C5 (complement C5) | -1.74 | active |
| C5 (complement C5) | -1.69 | active |
| HNRNPK (heterogeneous nuclear ribonucleoprotein K) | -0.9 | inactive |
| HNRNPK (heterogeneous nuclear ribonucleoprotein K) | -0.26 | inactive |
| HNRNPK (heterogeneous nuclear ribonucleoprotein K) | -0.77 | inactive |
| HNRNPK (heterogeneous nuclear ribonucleoprotein K) | -0.41 | inactive |
| CHST2 (carbohydrate sulfotransferase 2) | -0.04 | inactive |
| CHST2 (carbohydrate sulfotransferase 2) | 0.04 | inactive |
| CHST2 (carbohydrate sulfotransferase 2) | 0.67 | inactive |
| CHST2 (carbohydrate sulfotransferase 2) | 1.17 | inactive |
| BRF1 (BRF1 general transcription factor IIIB subunit) | -1.28 | inactive |
| BRF1 (BRF1 general transcription factor IIIB subunit) | -0.88 | inactive |
| BRF1 (BRF1 general transcription factor IIIB subunit) | -0.09 | inactive |
| BRF1 (BRF1 general transcription factor IIIB subunit) | 1.48 | inactive |
| CHAC2 (ChaC glutathione specific gamma-glutamylcyclotransferase 2) | 0.58 | inactive |
| CHAC2 (ChaC glutathione specific gamma-glutamylcyclotransferase 2) | 0.56 | inactive |
| CHAC2 (ChaC glutathione specific gamma-glutamylcyclotransferase 2) | -0.41 | inactive |
| CHAC2 (ChaC glutathione specific gamma-glutamylcyclotransferase 2) | -0.22 | inactive |
| KLHL11 (kelch like family member 11) | -0.92 | inactive |
| KLHL11 (kelch like family member 11) | -1.17 | inactive |
| KLHL11 (kelch like family member 11) | -0.81 | inactive |
| MMP27 (matrix metallopeptidase 27) | 1.41 | inactive |
| MMP27 (matrix metallopeptidase 27) | -0.69 | inactive |
| MMP27 (matrix metallopeptidase 27) | 2.05 | inactive |
| MMP27 (matrix metallopeptidase 27) | -0.54 | inactive |
| ARHGAP9 (Rho GTPase activating protein 9) | -0.69 | inactive |
| ARHGAP9 (Rho GTPase activating protein 9) | -0.65 | inactive |
| ARHGAP9 (Rho GTPase activating protein 9) | -0.72 | inactive |
| ARHGAP9 (Rho GTPase activating protein 9) | 1.12 | inactive |
